Results are given in words; binding and its absence hold for the method and conditions named. In cells and extracts the contact can be indirect. Some results given as binding are weak or reduced against the parent protein; the word gives no strength.
Assays:
[1] = biological target: hemagglutinin-tagged (HA-tagged) PI4K2A (human) (UniProt Q9BTU6); experiment: co-IP; anti-HA immunoprecipitates from H1299 cells transfected with HA-tagged PI4K2A; RIPA lysis; Protein G agarose; WB; IgG control IP
[2] = biological target: biotin-labeled recombinant SPP1 (UniProt P10451); experiment: pull-down; biotin-labeled recombinant SPP1 added to the culture medium of H1299 cells (100 ng/mL) for 4 hours; cells lysed in RIPA buffer; streptavidin agarose beads; WB; only the target purified
[3] = biological target: MYC-tagged PI4K2A, full-length (1–479) (human) (UniProt Q9BTU6); experiment: co-IP; H1299 cells transfected with MYC-tagged PI4K2A constructs; RIPA lysis; Protein G agarose; WB; IgG control IP

Protein sequences, listed by entry. Tags and fused reporters are not part of them. Lines headed by an entry give the natural chain unless they say otherwise; changes in a name come on top. Residues count along the entry.
UniProt Q9BTU6: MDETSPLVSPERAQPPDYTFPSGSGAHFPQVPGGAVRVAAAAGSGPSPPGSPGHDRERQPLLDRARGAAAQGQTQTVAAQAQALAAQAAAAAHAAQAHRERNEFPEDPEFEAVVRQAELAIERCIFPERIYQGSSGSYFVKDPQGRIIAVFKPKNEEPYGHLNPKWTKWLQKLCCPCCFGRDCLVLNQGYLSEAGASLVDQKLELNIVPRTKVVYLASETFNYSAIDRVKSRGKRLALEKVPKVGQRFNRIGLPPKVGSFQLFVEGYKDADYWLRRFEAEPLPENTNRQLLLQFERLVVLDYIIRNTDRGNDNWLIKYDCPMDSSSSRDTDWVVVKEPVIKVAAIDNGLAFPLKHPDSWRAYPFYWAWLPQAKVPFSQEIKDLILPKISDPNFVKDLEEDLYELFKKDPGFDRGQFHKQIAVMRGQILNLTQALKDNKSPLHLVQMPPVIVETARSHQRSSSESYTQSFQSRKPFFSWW
UniProt P10451, residues 17-314: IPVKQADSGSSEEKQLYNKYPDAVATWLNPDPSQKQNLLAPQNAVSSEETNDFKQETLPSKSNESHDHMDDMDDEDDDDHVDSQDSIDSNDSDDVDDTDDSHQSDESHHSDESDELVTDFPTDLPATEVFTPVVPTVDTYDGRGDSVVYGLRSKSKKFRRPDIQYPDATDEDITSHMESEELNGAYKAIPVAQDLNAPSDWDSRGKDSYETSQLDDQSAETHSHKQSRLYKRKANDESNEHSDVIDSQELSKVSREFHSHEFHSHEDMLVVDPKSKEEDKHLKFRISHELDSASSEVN
UniProt P16070, residues 21-742: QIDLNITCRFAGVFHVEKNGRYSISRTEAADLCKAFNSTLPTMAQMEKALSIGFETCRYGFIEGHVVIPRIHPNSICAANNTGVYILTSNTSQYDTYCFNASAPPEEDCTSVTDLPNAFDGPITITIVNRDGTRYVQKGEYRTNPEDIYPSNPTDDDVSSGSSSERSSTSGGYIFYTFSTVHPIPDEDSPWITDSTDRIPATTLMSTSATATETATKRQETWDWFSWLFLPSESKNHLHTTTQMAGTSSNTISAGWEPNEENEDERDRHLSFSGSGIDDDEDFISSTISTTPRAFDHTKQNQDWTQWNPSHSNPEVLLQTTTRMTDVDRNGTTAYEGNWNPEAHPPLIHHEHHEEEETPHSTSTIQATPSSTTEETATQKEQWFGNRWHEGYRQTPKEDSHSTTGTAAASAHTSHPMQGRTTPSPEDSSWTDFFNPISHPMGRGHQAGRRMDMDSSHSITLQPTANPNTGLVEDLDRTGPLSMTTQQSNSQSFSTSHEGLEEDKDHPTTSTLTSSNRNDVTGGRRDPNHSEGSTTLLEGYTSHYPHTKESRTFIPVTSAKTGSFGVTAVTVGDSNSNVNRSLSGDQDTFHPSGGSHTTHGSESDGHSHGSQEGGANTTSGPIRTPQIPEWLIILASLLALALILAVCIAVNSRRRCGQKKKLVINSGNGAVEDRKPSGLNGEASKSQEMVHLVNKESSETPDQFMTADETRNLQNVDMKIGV
UniProt P05556: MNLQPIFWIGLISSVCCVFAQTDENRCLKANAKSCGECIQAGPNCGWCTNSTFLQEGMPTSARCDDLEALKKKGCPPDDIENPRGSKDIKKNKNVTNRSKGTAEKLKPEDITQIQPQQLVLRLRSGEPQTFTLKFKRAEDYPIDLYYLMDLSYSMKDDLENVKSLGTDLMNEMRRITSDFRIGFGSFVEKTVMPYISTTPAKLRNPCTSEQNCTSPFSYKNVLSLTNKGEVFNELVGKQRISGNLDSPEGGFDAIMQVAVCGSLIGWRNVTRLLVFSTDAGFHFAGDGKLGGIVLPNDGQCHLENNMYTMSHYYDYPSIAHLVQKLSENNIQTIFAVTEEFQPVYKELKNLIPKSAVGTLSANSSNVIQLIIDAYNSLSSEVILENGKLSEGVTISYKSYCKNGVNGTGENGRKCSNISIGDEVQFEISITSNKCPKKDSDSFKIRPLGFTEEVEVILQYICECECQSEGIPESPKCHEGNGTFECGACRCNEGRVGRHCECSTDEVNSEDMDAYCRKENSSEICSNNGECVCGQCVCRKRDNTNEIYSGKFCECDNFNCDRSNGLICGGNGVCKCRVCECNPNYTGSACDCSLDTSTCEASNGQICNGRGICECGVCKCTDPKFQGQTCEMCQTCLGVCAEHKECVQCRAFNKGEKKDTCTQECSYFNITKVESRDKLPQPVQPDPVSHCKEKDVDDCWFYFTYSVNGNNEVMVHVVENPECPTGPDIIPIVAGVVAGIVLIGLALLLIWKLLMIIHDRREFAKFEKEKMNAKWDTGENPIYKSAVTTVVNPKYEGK
UniProt P35579: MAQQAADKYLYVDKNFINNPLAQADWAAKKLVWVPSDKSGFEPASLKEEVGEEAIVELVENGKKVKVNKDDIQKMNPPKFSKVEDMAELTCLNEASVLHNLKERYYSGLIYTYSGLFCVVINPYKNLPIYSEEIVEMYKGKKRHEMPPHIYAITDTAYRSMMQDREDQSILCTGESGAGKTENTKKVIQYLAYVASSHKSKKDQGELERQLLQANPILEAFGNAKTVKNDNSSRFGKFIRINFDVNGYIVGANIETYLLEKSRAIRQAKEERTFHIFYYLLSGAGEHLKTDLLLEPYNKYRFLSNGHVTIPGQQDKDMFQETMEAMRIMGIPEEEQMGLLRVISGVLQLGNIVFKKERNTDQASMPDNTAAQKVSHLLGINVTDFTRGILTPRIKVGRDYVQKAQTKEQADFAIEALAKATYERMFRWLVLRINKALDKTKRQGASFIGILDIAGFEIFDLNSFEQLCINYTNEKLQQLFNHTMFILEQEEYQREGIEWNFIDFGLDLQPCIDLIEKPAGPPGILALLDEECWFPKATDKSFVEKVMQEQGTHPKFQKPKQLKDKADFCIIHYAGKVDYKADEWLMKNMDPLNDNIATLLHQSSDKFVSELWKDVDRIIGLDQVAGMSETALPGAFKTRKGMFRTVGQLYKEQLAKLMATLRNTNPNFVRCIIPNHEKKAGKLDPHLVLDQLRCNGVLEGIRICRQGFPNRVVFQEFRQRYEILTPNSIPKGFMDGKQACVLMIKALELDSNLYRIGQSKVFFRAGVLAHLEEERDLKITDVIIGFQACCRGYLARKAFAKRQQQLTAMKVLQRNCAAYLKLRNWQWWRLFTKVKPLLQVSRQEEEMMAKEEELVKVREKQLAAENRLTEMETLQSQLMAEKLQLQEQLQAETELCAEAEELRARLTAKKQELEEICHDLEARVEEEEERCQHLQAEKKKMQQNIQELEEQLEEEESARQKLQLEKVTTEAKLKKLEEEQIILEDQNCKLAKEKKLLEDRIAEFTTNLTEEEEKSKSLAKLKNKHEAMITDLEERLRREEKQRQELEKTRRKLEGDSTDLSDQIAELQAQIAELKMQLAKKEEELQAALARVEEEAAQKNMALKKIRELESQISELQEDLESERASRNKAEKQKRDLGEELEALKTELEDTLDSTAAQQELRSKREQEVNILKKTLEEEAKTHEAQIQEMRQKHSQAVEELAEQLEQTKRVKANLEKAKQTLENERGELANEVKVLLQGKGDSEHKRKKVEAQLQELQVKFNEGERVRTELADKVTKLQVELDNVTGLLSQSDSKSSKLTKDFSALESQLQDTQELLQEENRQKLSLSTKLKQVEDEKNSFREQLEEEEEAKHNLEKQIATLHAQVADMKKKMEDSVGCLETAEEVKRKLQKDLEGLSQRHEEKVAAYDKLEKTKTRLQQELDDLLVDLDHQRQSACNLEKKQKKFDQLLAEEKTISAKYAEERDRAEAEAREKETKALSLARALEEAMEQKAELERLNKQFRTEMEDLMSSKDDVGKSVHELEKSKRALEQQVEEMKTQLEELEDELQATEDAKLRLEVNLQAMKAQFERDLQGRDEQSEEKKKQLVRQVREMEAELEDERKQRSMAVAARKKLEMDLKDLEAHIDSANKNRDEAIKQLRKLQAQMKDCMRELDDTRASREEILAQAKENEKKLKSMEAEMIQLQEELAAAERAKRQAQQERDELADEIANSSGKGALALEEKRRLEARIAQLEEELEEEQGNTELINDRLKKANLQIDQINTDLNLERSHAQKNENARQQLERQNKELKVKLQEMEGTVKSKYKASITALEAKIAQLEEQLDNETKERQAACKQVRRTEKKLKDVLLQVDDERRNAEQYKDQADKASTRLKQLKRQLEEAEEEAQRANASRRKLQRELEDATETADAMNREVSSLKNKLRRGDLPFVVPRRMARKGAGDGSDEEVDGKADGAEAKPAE

| binding [1] | binding [2] | binding [3] | Substance |
| --- | --- | --- | --- |
| binds | binds | – | CD44 molecule (from UniProt P16070 21-742) (receptor) |
| binds | binds | – | integrin-β1 (from UniProt P05556 21-798) (receptor) |
| – | – | binds | myosin heavy chain 9 (from UniProt P35579 1-1960) |
